Experimental data reported in publication PMC10163288.
Some of the results follow.

B1: il2ra_site2_2erj_normal_mot_HHH_b2_02252_af2_000000112_0001_23_39_H_._HHH_b2_01517_af2_0001_0000700005_0000001_0 (protein)
chain: SSSSSDELEELLQEAKELLEEGNPEEALEAARRAFELAFKLGDHEAAAEIIELAHQIVRHSSSSS
B2: il2ra_site2_2erj_normal_mot_HHH_b2_07139_000000086_0001_40_57_H_._HHH_b1_00399_0001_0000100003_0000001_0 (protein)
chain: SSSSDVEERVRELLEEAEERFKEGDLERVFELLSRALHEASEANNDELQQAIEEFFEELASSSSS
B3: il2ra_site1_2b5i_sap_17_mot_3c291a2f2994a8e029b17f9ec7f22732_0001_000000088_0001_17_31_H_._HHH_b1_06138_0001_0000500021_0000001_0_0001_af2pred_dldesign_0_af2pre … (protein)
chain: SSSSSDPRAEVERLIEEARRLYEAGKRREALEALEKAYKLASAANDEALQDEIEALAKEISSSSS
B4: il2ra_site2_3nfp_sap_20_mot_HHH_b1_05785_af2_000000002_0001_41_57_H_._HHH_b1_00695_af2_0001_0000100002_0000001_0_0001_af2pred_0001_af2pred (protein)
chain: SSSSSDEERLEELQRELRELLEEGDEEEAERVAQELATLALELGDHEAFAEALSVLKELESSSSS
B5: il2ra_site2_3nfp_normal_mot_HHH_b2_07083_af2_000000083_0001_42_56_H_._HHH_b1_04834_0001_0000600037_0000001_0_af2pred_0001_af2pred_1 (protein)
chain: SSSSDIEERVRELLEELEEALREGDEELFRELLKEVSELAAEANDPELLHEVAELFLKFGSSSSS
B6: il2ra_site1_3nfp_sap_10_mot_d8099cd8ef6a59b9c03de2010570d688_0001_af2_000000184_0001_37_51_H_._ems_3hC_894_0002_af2_0001_0000100001_0000001_0_0001 (protein)
chain: SSSSNEVRREIQELLKEAMELTANGNPEEARKLLEEALELAEEAGDEAILRFIKEMLERIKSSSS
B7: il2ra_site2_2erj_normal_mot_HHH_b2_05804_000000098_0001_44_58_H_._HHH_b2_01664_0001_0000600009_0000001_0 (protein)
chain: SSSSSSWKEVWERVAELLAEAQKIKDPEELRRLLEEAQELAEEANSEFLERYIEFARRDLSSSSS
B8: il2ra_site2_2erj_normal_mot_HHH_b1_03990_af2_000000075_0001_19_35_H_._HHH_b2_03245_af2_0001_0000300008_0000001_0 (protein)
chain: SSSSSEEVFEAWALAAEAFHKLAREGDDELFERLQELSARLAREGDPEVAEELLRLAEEVLSSSS
B9: il2ra_site1_1z92_normal_mot_HHH_b2_01902_af2_000000252_0001_25_40_H_._HHH_b1_06549_af2_0001_0000100014_0000001_0_af2pred_dldesign_0_af2pred (protein)
chain: SSSSSPLERAARQYVDAIKEIAGLSDEQYAELLAEAERLAAAGVPVRDIAKALDKRAAELLSSSS
B10: il2ra_site2_3nfp_normal_mot_HHH_b1_04761_000000247_0001_39_52_H_._HHH_b2_05186_0001_0000100007_0000001_1 (protein)
chain: SSSSDHEEAVEAALQLAEALRERVSEEDQEELERLYRELREEGDPELAIELFKLILELYDSSSSS
B11: il2ra_site2_3nfp_normal_mot_HHH_b1_00660_af2_000000090_0001_40_57_H_._HHH_b1_07965_0001_0000200016_0000001_0_af2pred_0001_1_af2pred_swapped (protein)
chain: SSSSSSREEVEELLKEAQELLERGNPEEAERVVREAATVAVELNDHELFAAVSRLLERILSSSSS
B12: il2ra_site2_2erj_sap_25_mot_HHH_b2_03871_000000240_0001_40_57_H_._ems_p1-15H-GBL-16H-GABBL-16H_0175_0001_0001_0002_0001_0000900032_0000001_0_0001 (protein)
chain: SSSSSEAEEAFRKAEELVEEGNYEEAAAIAASAMHLALEEGDEELERRIRELYAELAEELVSSSS
B13: il2ra_site1_3nfp_sap_18_mot_HHH_b1_00258_000000025_0001_42_56_H_._HHH_b1_07363_0002_0000300028_0000001_0_0001_af2pred_0001_af2pred_swapped (protein)
chain: SSSSTDEVLELLRILLELAKEGDEEKFEEVLEELEELAEKHNDKLAERLVKQARRFEKLHSSSSS
B14: il2ra_site1_2b5i_normal_mot_HHH_b2_04910_000000118_0001_1_19_H_._HHH_b2_02106_af2_0001_0000300030_0000001_0_af2pred_dldesign_0_af2pred (protein)
chain: SSSSSAETKEARRLFLEANELKQAGKYEEALEKLKKAKELAEKGGANLLAKMIELAIENLESSSS
B15: il2ra_site1_3nfp_normal_mot_HHH_b1_04049_af2_000000244_0001_42_55_H_._d1fb33ed66649044859e967e86ea168f_0001_af2_0001_0000200005_0000001_0 (protein)
chain: TKEKAIEDIIRALKQLPDPEVRELAEEAEELLENGDPEEALKVLKEAAKLLGDPVLEKLIEQYLT
B16: il2ra_site2_3nfp_sap_19_mot_HHH_b1_07498_000000011_0001_1_19_H_._1a4252fcbf463328b814843e80ab038b_0001_0001_0000900006_0000001_0_0001 (protein)
chain: SSSSDKHEEYVRAAIAAIRRALEDGDPEAAERLVRIAILAARDIRNPELEKELEELLEELSSSSS
B17: il2ra_site1_1z92_normal_mot_7f39e2d7389de0c2f60e905c27398b6a_0001_1_000000104_0001_37_51_H_._b993f726e2a1b23aaa9ca63207d855c5_0001_0001_0000100001_0000001_0_af2 … (protein)
chain: GEEEVENAERFAGGDPEKFVRLVLRLLRASGELSPEELKELEEKLRELLKRDPEKAKELAEELLH
B18: il2ra_site1_2b5i_normal_mot_HHH_b2_08262_af2_000000095_0001_1_15_H_._HHH_b2_08088_0001_0000400021_0000001_0 (protein)
chain: SSSSSDEEVEELFLEASRAFRKGNPEEAEELLEEALRLARELGDPRSAEDIEQMLRRLKSSSSSS

target: il2ra, P01589; assay: yeast display titration

Apparent Kd, inactive:
B1 no binding seen, B2 no binding seen, B3 no binding seen, B4 no binding seen, B5 no binding seen, B6 no binding seen, B7 no binding seen, B8 no binding seen, B9 no binding seen, B10 no binding seen, B11 no binding seen, B12 no binding seen, B13 no binding seen, B14 no binding seen, B15 no binding seen, B16 no binding seen, B17 no binding seen, B18 no binding seen
